Results are given in words; binding and its absence hold for the method and conditions named. In cells and extracts the contact can be indirect. These calls come from enrichment with a bait or labelling near it, and not all partners need be listed. Sequences can lack the tags named with a protein.

For the assay, the target named is T1, Flag-TAK1 (UniProt O43318).
T1 sequence: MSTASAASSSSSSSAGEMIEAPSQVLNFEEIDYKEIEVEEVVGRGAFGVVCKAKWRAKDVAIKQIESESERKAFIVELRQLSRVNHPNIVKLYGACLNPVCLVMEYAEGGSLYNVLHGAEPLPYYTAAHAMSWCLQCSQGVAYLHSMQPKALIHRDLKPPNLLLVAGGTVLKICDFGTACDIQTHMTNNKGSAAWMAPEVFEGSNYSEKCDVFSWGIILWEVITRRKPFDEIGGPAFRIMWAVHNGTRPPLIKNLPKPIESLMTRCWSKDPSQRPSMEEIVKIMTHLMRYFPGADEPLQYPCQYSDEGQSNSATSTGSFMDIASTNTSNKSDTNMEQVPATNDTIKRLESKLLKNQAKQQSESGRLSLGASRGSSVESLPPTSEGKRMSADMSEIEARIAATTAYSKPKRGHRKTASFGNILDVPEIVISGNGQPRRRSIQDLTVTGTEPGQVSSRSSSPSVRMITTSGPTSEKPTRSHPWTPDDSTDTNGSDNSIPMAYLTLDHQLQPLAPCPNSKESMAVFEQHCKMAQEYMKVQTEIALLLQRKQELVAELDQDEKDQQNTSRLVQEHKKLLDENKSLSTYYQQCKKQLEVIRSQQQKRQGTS
Description: affinity purification with mass spectrometry.

Regarding Mfn2 (endogenous, COS-7), the binding result was “binds”.
